Data as given in PubChem BioAssay AID504774 (Drosophila RNAi Screening Center, 2011)

Purpose: 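Genes required for cells to withstand methyl methanesulphonate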 (primary screen)
Cells: Drosophila Kc167 cells
Reagents: long dsRNA against Drosophila genes, about 0.25 µg dsRNA per well
Time to read-out: about 6 days: 3 days knock-down, then 3 days with or without MMS
Conditions: methyl methanesulphonate 0.004% (w/v) for 3 days after knock-down
Detection: 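Viability in wells given MMS, read as ATP luminescence, normalised by quantiles plate by plate and averaged across replicates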
Scale: mean viability with MMS and viability with MMS: higher = more surviving cells after MMS
In all, the deposit lists about 23,000 reagents; this is an unselected part of those that have a named target and a result. 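Values are quantile-normalised luminescence on an arbitrary scale; higher means more cells surviving MMS.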 A plus sign joins genes that one reagent is predicted to hit.

| Gene | amplicon | mean viability with MMS | viability with MMS, replicate 1 | viability with MMS, replicate 2 |
| --- | --- | --- | --- | --- |
| Or85a (Odorant receptor 85a) | DRSC16764 | 3.56e6 | 3.95e6 | 4.11e6 |
| CG17440 | DRSC18126 | 3.60e6 | 4.09e6 | 4.05e6 |
| CG11426 | DRSC11658 | 3.33e6 | 3.70e6 | 3.78e6 |
| Blos1 | DRSC05970 | 3.63e6 | 3.97e6 | 4.04e6 |
| CG34169 | DRSC01579 | 3.54e6 | 4.00e6 | 4.01e6 |
| Rcd2 (Reduction in Cnn dots 2) | DRSC11756 | 3.49e6 | 3.93e6 | 3.96e6 |
| LManII (Lysosomal alpha-mannosidase II) | DRSC01986 | 3.66e6 | 4.35e6 | 4.01e6 |
| vig (vasa intronic gene) | DRSC03630 | 3.62e6 | 4.03e6 | 3.98e6 |
| vig (vasa intronic gene) | DRSC03631 | 3.54e6 | 4.12e6 | 3.93e6 |
| vig (vasa intronic gene) | DRSC21672 | 3.60e6 | 4.08e6 | 4.07e6 |
| barc (barricade) | DRSC11792 | 3.23e6 | 3.63e6 | 3.68e6 |
| mAcon2 (Mitochondrial aconitase 2) | DRSC15629 | 3.47e6 | 3.97e6 | 3.93e6 |
| CG18628 | DRSC10328 | 3.69e6 | 4.26e6 | 4.04e6 |
| U2af38 (U2 small nuclear riboprotein auxiliary factor 38) | DRSC00796 | 3.10e6 | 3.26e6 | 3.56e6 |
| MstProx | DRSC12458 | 3.45e6 | 3.91e6 | 3.92e6 |
| MstProx | DRSC12601 | 3.43e6 | 3.84e6 | 3.96e6 |
| Mat1 (Menage a trois 1) | DRSC07465 | 3.26e6 | 3.71e6 | 3.74e6 |
| CG13488 | DRSC04133 | 3.43e6 | 3.80e6 | 3.94e6 |
| ver (verrocchio) | DRSC10125 | 3.52e6 | 4.09e6 | 3.89e6 |
| Cyp9c1 (Cytochrome P450 9c1) | DRSC04607 | 3.72e6 | 4.23e6 | 4.11e6 |
| Tsp96F (Tetraspanin 96F) | DRSC14147 | 3.68e6 | 4.14e6 | 4.16e6 |
| CG42502 + CG10570 | DRSC02071 | 3.63e6 | 4.17e6 | 4.09e6 |
| CG11449 | DRSC11662 | 3.39e6 | 3.86e6 | 3.77e6 |
| CG33120 | DRSC02073 | 3.47e6 | 3.96e6 | 3.89e6 |
| CG10011 | DRSC14174 | 3.47e6 | 3.87e6 | 4.00e6 |
| CG2962 | DRSC18247 | 3.64e6 | 4.29e6 | 3.99e6 |
| Taf6 (TBP-associated factor 6) | DRSC11299 | 3.36e6 | 3.74e6 | 3.84e6 |
| VhaSFD (Vacuolar H[+]-ATPase SFD subunit) | DRSC03471 | 3.39e6 | 3.83e6 | 3.80e6 |

3 of these entries in another layout.
Gene,amplicon,mean viability with MMS,"viability with MMS, replicate 1","viability with MMS, replicate 2"
CG2962,DRSC18247,3.64e6,4.29e6,3.99e6
Taf6 (TBP-associated factor 6),DRSC11299,3.36e6,3.74e6,3.84e6
VhaSFD (Vacuolar H[+]-ATPase SFD subunit),DRSC03471,3.39e6,3.83e6,3.80e6
